Data source: PubChem BioAssay AID1259308 (NCATS, 2017)
Aim: 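Candidate targets for better recombinant protein yield in mammalian cells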 (primary screen). System: human HEK293 embryonic kidney cells stably expressing firefly luciferase (HEK-CMV-Luc2-Hygro). Knock-down reagent: single siRNA against human genes, 0.8 pmol siRNA per well. Time to read-out: 72 h. Measured: 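Reporter luminescence and viable-cell signal on separate replicate plates, given as percent of non-targeting control and median/MAD z-scores, plus per-cell luciferase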. Reading the numbers: total luciferase, z-score and total luciferase, % of control: higher = more reporter protein produced. Hit rule: 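Active when the median/MAD z-score for overall luciferase is greater than 3; a gene was taken forward for validation with new siRNAs if at least two of its three siRNAs passed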. Meaning of the calls: active = raised luciferase; inactive = no rise.
The deposit covers about 59,000 reagents; below is an unselected part. About 1,510 of all reagents (2.6%) count as active. 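Calls use total luciferase alone and ignore viability, so some active siRNAs may act by altering cell number.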 Unmarked entries are inactive. Reagents against one gene are numbered here. Further read-outs or replicates are left out here.

| gene | reagent no. | total luciferase, z-score | total luciferase, % of control |
| --- | --- | --- | --- |
| SFT2D3 | 1 | 2.85 | 139 |
| SFT2D3 | 2 | 0.564 | 93.1 |
| SFT2D3 | 3 | -0.351 | 74.9 |
| CDC42BPB | 1 | -0.898 | 64 |
| CDC42BPB | 2 | -0.336 | 75.2 |
| CDC42BPB | 3 | 0.753 | 96.9 |
| PYCR3 | 1 | 0.308 | 88 |
| PYCR3 | 2 | -1.75 | 47.1 |
| PYCR3 | 3 | 1.34 | 109 |
| ADAM17 | 1 | -0.972 | 62.5 |
| ADAM17 | 2 | -0.0191 | 81.5 |
| ADAM17 | 3 | -0.414 | 73.7 |
| TRAF4 | 1 | 3.25 (active) | 147 |
| TRAF4 | 2 | 1.21 | 106 |
| TRAF4 | 3 | 1.3 | 108 |
| LCN10 | 1 | -1.64 | 49.3 |
| LCN10 | 2 | 0.678 | 95.4 |
| LCN10 | 3 | 1.11 | 104 |
| SLC28A1 | 1 | -0.191 | 78.1 |
| SLC28A1 | 2 | 1.59 | 114 |
| SLC28A1 | 3 | 0.665 | 95.1 |

The list goes on (5 carried over from the part before).
| gene | reagent no. | total luciferase, z-score | total luciferase, % of control |
| --- | --- | --- | --- |
| LCN10 | 2 | 0.678 | 95.4 |
| LCN10 | 3 | 1.11 | 104 |
| SLC28A1 | 1 | -0.191 | 78.1 |
| SLC28A1 | 2 | 1.59 | 114 |
| SLC28A1 | 3 | 0.665 | 95.1 |
| LRRC37B | 1 | -1.08 | 60.4 |
| LRRC37B | 2 | 0.306 | 88 |
| LRRC37B | 3 | -0.264 | 76.6 |
| SMCR8 | 1 | 0.222 | 86.3 |
| SMCR8 | 2 | 1.18 | 105 |
| SMCR8 | 3 | 1.21 | 106 |
| HAS1 | 1 | 2.4 | 130 |
| HAS1 | 2 | -0.144 | 79 |
| HAS1 | 3 | 0.133 | 84.5 |
| FAM90A27P | 1 | -2.18 | 38.6 |
| FAM90A27P | 2 | 2.07 | 123 |
| FAM90A27P | 3 | -0.693 | 68.1 |
| OR10H2 | 1 | 0.812 | 98 |
| OR10H2 | 2 | 2.51 | 132 |
| OR10H2 | 3 | 1.11 | 104 |
| MYOT | 1 | -1.25 | 57.1 |
| MYOT | 2 | -2.3 | 36.1 |
| MYOT | 3 | 0.375 | 89.3 |
